Record: PubChem BioAssay AID686937 (Drosophila RNAi Screening Center, 2013)

Screen: 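Genes whose loss weakens secretory pathway function in fly cells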 (primary screen)
Cells: Drosophila S2 cells expressing secreted horseradish peroxidase
Knock-down reagent: long dsRNA against Drosophila genes
Timing: about 5.5 days (5 days dsRNA, then 12 h reporter induction)
Challenge: reporter expression induced after 5 days of dsRNA, read 12 h later; inducer not stated
Measurement: 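Chemiluminescent measurement of peroxidase in the medium 12 h after reporter induction, following 5 days of dsRNA, given as a z-score per plate; higher means more secretion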
Reading the numbers: z-score: higher = more reporter secreted into medium
The screen tested about 23,000 reagents; below is a random part of those with a known target gene and a result. 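Reduced-secretion tags in replicate 1 do not always agree with the z-scores; no criterion for assigning the tags was given.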 Reagents against one gene are numbered here. A plus sign joins genes that one reagent is predicted to hit. Further read-outs or replicates are left out here. The record does not give: the amount of reagent.

z-score, replicate 1, by gene and reagent
Fmo-2 (Flavin-containing monooxygenase 2): #1 0
Ir51a (Ionotropic receptor 51a): #1 0.6
dbo (diablo): #1 0.4
Nep3 (Neprilysin 3): #1 0.1
asRNA:CR43463 + Pgant35A: #1 0.19
CG5003: #1 0.56
CG7299: #1 0.48
CG2680: #1 0.26
CG9624: #1 0.3
CG11409: #1 0.08
caup (caupolican): #1 -2.21
CG43295: #1 0.28
CG9759: #1 0.39
Fdx2 (Ferredoxin 2): #1 0.41
jub (Ajuba LIM protein): #1 0.33
CG15213: #1 -1.09
Cnep1r2 (CTD nuclear envelope phosphatase 1 regulatory subunit 2): #1 0.51
CG31122: #1 -0.03; #2 0.48
CG17134: #1 -0.04
CG18744: #1 0.03
CG31437: #1 0.72
CG5191: #1 0.19; #2 0.18; #3 0.11
aub (aubergine): #1 0.42
Irp-1A (Iron regulatory protein 1A): #1 0.19
Rpp21 (Ribonuclease P/MRP subunit p21): #1 -0.06
Spn43Ad (Serpin 43Ad): #1 0.09
CG17321: #1 0.44
Usf: #1 0.4
Faf2 (Fas-associated factor 2): #1 0.44
CG6791: #1 0.02
CG14204: #1 -0.78
mRpL17 (mitochondrial ribosomal protein L17): #1 -0.11
PXo (P[[i]]-sensitive XPR1 orthologue): #1 0.23
l(2)37Cd (lethal (2) 37Cd): #1 0.06
CG43317: #1 0.17
PGRP-SC1a (Peptidoglycan recognition protein SC1a): #1 0.2
CG34462: #1 0.55
CG11723: #1 0.2
FarO (Fatty acyl-CoA reductase in oenocytes): #1 0.3
HP1b (Heterochromatin Protein 1b): #1 0.47
Pink1 (PTEN-induced putative kinase 1): #1 0.49
CG31562 (retired record): #1 0.32; #2 0.32
sofe: #1 0.15
Nt5c (5' nucleotidase C): #1 -0.75
Cap-G (Chromosome associated protein G): #1 0.13; #2 0.09; #3 -2.86
retinin: #1 -0.01
rictor (rapamycin-insensitive companion of Tor): #1 0.48
ush (u-shaped): #1 -0.06
Mgat3: #1 0.06
Fancl: #1 0.54

Laid out differently: 7 of the entries above
gene,reagent no.,"z-score, replicate 1"
CG11723,1,0.2
FarO (Fatty acyl-CoA reductase in oenocytes),1,0.3
HP1b (Heterochromatin Protein 1b),1,0.47
Pink1 (PTEN-induced putative kinase 1),1,0.49
CG31562 (retired record),1,0.32
CG31562 (retired record),2,0.32
sofe,1,0.15
